Results: paper PMC6527865
No constants are given. Whether binding was seen depends on the method and setting. In cells and extracts the contact can be indirect. Binding calls can cover weak binding; strength is not graded here.

Biological target: Scc2N with a C-terminal Pk epitope tag (S. cerevisiae)
Test: co-IP; full-length Scc2, Scc2N or Scc2C immunoprecipitated from extracts of cells depleted of endogenous Scc2; co-immunoprecipitation of Scc4 (Figure S5B)

- binding: binds
B1: Scc4 (protein, UniProt P40090 1-624)
chain: MENLGDKLSISQVYHLAQEYRDHAYSIANKIGSEEGLKQYYGLMNMSIQMFQLLKTKCTLSVLEDSKVTFEMVELLIQETYNFDLAELYISSLKERLQTHQSDTDLVEEIMRCEFLLLHDLPLMRDSKFHYKIALRNCNELVQYMVNLQDELYQNWASVFQYVGVMLCIKLKQHRRVKTSFHGLLSQCREKSQWKWFLNLCYVNYLLNERFPIPEDALQELRSTELHTVGPELYAWKLALEMVIQLCKDGNITDHLNEFKNFFDTNKQSLVTNEGKGCVIKIMPRIALKVELPMIFHYKELKNILLLLQSVSYIVNCYDEKGNFSRKFLPKVYSTTQKLIKNIAAGGVSMNELDSRIQTYKSILEFCEFYKVWEQTLLKGAVVTTESPKLGPSPGYVRLLQAMKVQFEGGGAVEEYTRLAQSGGTSSEVKMISLLNCYTVQAARVSRCSGDKQGELVEQCNKVWLQVEKLLQETDLQFNPIWECTVTILWLFSHFEPFSWNPLPCSDKQRAEYVSKLREFYSSNKFVAGEAVADNRFKLKKALLLQILVNYLGGRMLEHDLGEIYAISAKCFDMCRQQGGMRKVQYVIGIWHLMNCTVAMRGKDVALTNAKLEALVKQITSVKQ
